{
  "source": "PubChem BioAssay AID540276",
  "about": "(National Center for Advancing Translational Sciences (NCATS), 2011)",
  "note": "In all, about 300,000 compounds went through this assay and about 5,400 (1.8%) were called active. The inconclusive results got no clear call from the source; some entries with a clear call stand among them for comparison. The call rests on the fitted dose curve; tested in HEK293 cells. Potencies beside an inconclusive call are fits to weak or partial responses and may not hold up. Potency means the concentration at half of the fitted maximal effect.",
  "data": [
    {"assay": "qHTS for inhibitors of binding or entry into cells for Marburg Virus", "details": "Marburg virus pseudotyped entry inhibition, cell reporter; series mostly up to 37.8 µM", "values": [
      {"smiles": "NC(=O)c1ccccc1NCC(=O)c1ccc(Cl)cc1", "Potency": "inactive"},
      {"smiles": "CC(C)(C)c1ccc(N2C(=N)SCC2=O)cc1", "Potency": "inconclusive: 35.5 µM [inhibitor, single point]"},
      {"smiles": "Cc1cc(O)c(C(C[N+](=O)[O-])c2ccc(Cl)cc2Cl)c(=O)o1", "note": "(stereo not given)", "Potency": "inactive"},
      {"smiles": "CCC1=Nc2cc(C(=O)NCc3ccco3)ccc2Sc2ccc(C)cc21", "Potency": "inactive"},
      {"smiles": "Cc1ccc(CNC(=O)CCCn2c(=O)c3ccccc3n(CC(=O)C(C)(C)C)c2=O)cc1", "Potency": "inactive"},
      {"smiles": "OCCNC1=NCCN1", "Potency": "inactive"},
      {"smiles": "O=C(OCc1nnc(-c2ccccc2)o1)c1ccc(Br)o1", "Potency": "inactive"},
      {"smiles": "COCc1cc(C)nc(SCc2nc3ccccc3c(=O)[nH]2)c1C#N", "Potency": "inconclusive: 8.91 µM [inhibitor, partial curve, poor fit]"},
      {"smiles": "COc1ccccc1NC(=S)NC1CCCCCCCCCCC1", "Potency": "inactive"},
      {"smiles": "CN(C)c1ccc(/C=C/c2cc[n+](C)c3ccccc23)cc1", "Potency": "active: 7.94 µM"},
      {"smiles": "CCN(CC)C(=O)CSc1ncnc2c1cnn2Cc1ccccc1", "Potency": "inconclusive: 35.5 µM [inhibitor, single point]"},
      {"smiles": "COc1cccc(NC(=O)c2sc3nc(N4CCOCC4)c4c(c3c2N)CC(C)(C)OC4)c1", "Potency": "inconclusive: 0.631 µM [activator, full curve, poor fit]"},
      {"smiles": "CCCOc1ccc(/C(O)=C2/C(=O)C(=O)N(CCCn3ccnc3)C2c2cccs2)cc1", "note": "(stereo not given)", "Potency": "inactive"},
      {"smiles": "O=C(Oc1ccc(F)cc1)c1ccc2c(=O)n3c(nc2c1)CCC3", "Potency": "inactive"},
      {"smiles": "CCc1noc(C)c1C(=O)N1CCCSC1=Nc1ccccc1C(C)C", "Potency": "inactive"},
      {"smiles": "O=C(c1cccs1)N1CCCC(c2nc3c(nnn3Cc3c(Cl)cccc3Cl)c(=O)[nH]2)C1", "note": "(stereo not given)", "Potency": "inconclusive: 12.6 µM [inhibitor, partial curve, poor fit]"},
      {"smiles": "CCN(C(=O)COC(=O)c1cc(-c2ccc(C)o2)nc2ccccc12)C1CCS(=O)(=O)C1", "note": "(stereo not given)", "Potency": "inactive"},
      {"smiles": "COc1ccccc1CNC(=O)CN(C)S(=O)(=O)c1ccc2c(c1)c(=O)n(C)c(=O)n2C", "Potency": "inactive"},
      {"smiles": "CN(CCO)c1cc(Sc2nc3ccccc3s2)c2nonc2c1[N+](=O)[O-]", "Potency": "inconclusive: 20.6 µM [inhibitor, single point]"},
      {"smiles": "COc1ccc(N2CCN(c3ccc(-c4nc(-c5ccccc5C)no4)cc3[N+](=O)[O-])CC2)cc1", "Potency": "inconclusive: 0.316 µM [activator, partial curve, poor fit]"},
      {"smiles": "CC(=O)Nc1ccc(NCC(=O)c2ccccc2)cc1", "Potency": "inconclusive: 3.98 µM [inhibitor, single point]"},
      {"smiles": "CCCCC(=O)N(CCOC)c1nnc(-c2ccc(OC)cc2)s1", "Potency": "inactive"},
      {"smiles": "CCc1c(C)nc2c(-c3ccccc3)c(C)[nH]n2c1=O", "Potency": "inconclusive: 3.98 µM [inhibitor, single point]"},
      {"smiles": "Cc1ccc(NC(=S)Nc2cccnc2)c(S(=O)(=O)N2CCCCC2)c1", "Potency": "inconclusive: 7.94 µM [inhibitor, partial curve, poor fit]"},
      {"smiles": "Cc1ccc(C23CC4CC(CC(C(=O)NC(C)C)(C4)C2)C3)cc1", "Potency": "inconclusive: 3.55 µM [inhibitor, partial curve, poor fit]"},
      {"smiles": "Cc1cnc(NC2=NCCC2)s1", "Potency": "inconclusive: 8.91 µM [activator, partial curve, poor fit]"},
      {"smiles": "CC(C)n1c(=O)c(C=Nc2cccc([N+](=O)[O-])c2)c(O)n(CCc2ccccc2)c1=O", "Potency": "inconclusive: 3.98 µM [inhibitor, single point]"},
      {"smiles": "CC1CC(NC(=O)Cc2ccc(Br)cc2)CC(C)(C)C1", "note": "(stereo not given)", "Potency": "inconclusive: 2.31 µM [inhibitor, partial curve, poor fit]"},
      {"smiles": "Cc1cccc(N2CCN(C(=O)c3cccc(N4CCCC4=O)c3)CC2)c1C", "Potency": "inconclusive: 11.2 µM [inhibitor, single point]"},
      {"smiles": "Cc1ccc(C)c(S(=O)(=O)N2CCN(c3ncnc4sccc34)CC2)c1", "Potency": "inconclusive: 14.1 µM [inhibitor, partial curve, poor fit]"},
      {"smiles": "Cc1ccc(-c2nnc(N3CCCCC3)c3ccccc23)cc1S(=O)(=O)NCC1CCCO1", "note": "(stereo not given)", "Potency": "inactive"},
      {"smiles": "COCCCNC(=O)c1ccc2c(c1)N=C(C)c1c(C)ccc(C)c1S2", "Potency": "inconclusive: 0.708 µM [inhibitor, full curve, poor fit]"},
      {"smiles": "CCc1cccc(CC)c1NC(=S)N1CC2CC(C1)c1cccc(=O)n1C2", "note": "(stereo not given)", "Potency": "inconclusive: 15.8 µM [activator, single point]"},
      {"smiles": "CN(C(=O)COC(=O)C1CCN(S(=O)(=O)c2c(Cl)cccc2Cl)CC1)c1ccccc1", "Potency": "inactive"},
      {"smiles": "Cc1cc(C)cc(OCC(=O)NC2=NCCS2)c1", "Potency": "inactive"},
      {"smiles": "N#CNC1=NCN(CCc2ccccc2)CN1", "Potency": "inconclusive: 0.178 µM [inhibitor, partial curve, poor fit]"},
      {"smiles": "O=C(c1ccc2c(c1)OCO2)N(c1ccc(Br)cc1)C1C=CS(=O)(=O)C1", "note": "(stereo not given)", "Potency": "inactive"},
      {"smiles": "C[C@]12CC[C@@H]3c4ccc(OC(=O)c5ccccc5)cc4CC[C@H]3[C@@H]1CC[C@@H]2O", "Potency": "inactive"},
      {"smiles": "COc1ccc(C(=O)NC(=O)NC2(C(Cl)(Cl)Cl)OCCO2)cc1", "Potency": "inconclusive: 6.31 µM [inhibitor, full curve, poor fit]"},
      {"smiles": "CCOC(=O)N1CCN(C(=O)CSCc2ccccc2)CC1", "Potency": "inconclusive: 3.16 µM [activator, full curve, poor fit]"},
      {"smiles": "COc1ccc(C(OCC(O)CNC(C)c2ccccc2)c2ccc(OC)cc2)cc1", "note": "(stereo not given)", "Potency": "active: 3.55 µM"},
      {"smiles": "CC(C)CCOC(=O)/C(=C/c1ccco1)NC(=O)/C=C/c1ccccc1", "Potency": "inactive"},
      {"smiles": "Cc1ccccc1OC(=O)n1c(=S)oc2cc(Cl)ccc21", "Potency": "inconclusive: 22.4 µM [activator, single point]"},
      {"smiles": "O=C(NNc1nc2ccccc2o1)c1ccccc1", "Potency": "inconclusive: 1.12 µM [inhibitor, full curve, poor fit]"},
      {"smiles": "COc1ccccc1CNc1nc2nc(C)c(Cl)c(C)n2n1", "Potency": "inconclusive: 35.5 µM [activator, single point]"},
      {"smiles": "O=C1c2cccc3c([N+](=O)[O-])ccc(c23)C(=O)N1Cc1cccnc1", "Potency": "inconclusive: 5.62 µM [activator, single point]"},
      {"smiles": "CC(=O)N(Cc1ccc(F)cc1)C1=C(NCc2ccccc2)C(=O)c2ccccc2C1=O", "Potency": "inconclusive: 10 µM [inhibitor, partial curve, poor fit]"},
      {"smiles": "CC(C)C1C(=O)N(Cc2cn(Cc3ccco3)nn2)CCS(=O)(=O)N1Cc1ccc(-c2ccc(Cl)c(Cl)c2)cc1", "note": "(stereo not given)", "Potency": "inconclusive: 0.499 µM [inhibitor, full curve, poor fit]"},
      {"smiles": "CC(=O)Nc1ccc(S(=O)(=O)N2CCCN(S(=O)(=O)c3ccc(C)cc3)CC2)cc1", "Potency": "inconclusive: 29.1 µM [inhibitor, single point]"},
      {"smiles": "Nc1ccc(C(=O)OCC(=O)NC(=O)c2ccccc2)cc1[N+](=O)[O-]", "Potency": "inconclusive: 5.62 µM [activator, single point]"},
      {"smiles": "CCc1ccccc1N(CC(=O)NCC1CCCO1)C(=O)CCC(=O)Nc1cc(C)on1", "note": "(stereo not given)", "Potency": "inactive"},
      {"smiles": "CCOc1ccc(/C=N/NC(=O)c2cc(-c3ccccc3)nc3ccccc23)cc1O", "Potency": "inactive"},
      {"smiles": "COc1ccc(C2C(C(C)=O)=C(O)C(=O)N2c2ccc(Br)cn2)cc1", "note": "(stereo not given)", "Potency": "inactive"},
      {"smiles": "COc1ccc(CN(C2CCCCC2C)S(=O)(=O)c2ccc(S(=O)(=O)N(C)C)cc2)cc1OC", "note": "(stereo not given)", "Potency": "inconclusive: 5.01 µM [inhibitor, partial curve, poor fit]"},
      {"smiles": "O=C(Nc1cccc(S(=O)(=O)N2CCCCCC2)c1)C1CCC1", "Potency": "inactive"},
      {"smiles": "O=C(NN=C(Cc1ccccc1)Cc1ccccc1)C1CC1", "Potency": "inactive"},
      {"smiles": "CN(C)c1nc(Nc2ccccc2)nc(N(C)C)n1", "Potency": "active: 3.55 µM"},
      {"smiles": "COc1ccc(NC(=O)Cn2c(=O)cnc3ccccc32)cc1S(=O)(=O)N1CCCCC1", "Potency": "inconclusive: 22.4 µM [activator, single point]"},
      {"smiles": "COC(=O)Nc1nnc(COc2ccccc2)s1", "Potency": "inactive"},
      {"smiles": "COc1ccccc1NC(=O)C1=C(C)Nc2nc(SCc3ccccc3)nn2C1c1ccccn1", "note": "(stereo not given)", "Potency": "inconclusive: 35.5 µM [activator, single point]"},
      {"smiles": "Cc1ccc(S(=O)(=O)N2CCN(C(=O)CN3CCc4ccccc4C3)CC2)cc1", "Potency": "inconclusive: 25.9 µM [inhibitor, partial curve, poor fit]"},
      {"smiles": "Cc1cc(C(=O)N/N=C/c2ccc([N+](=O)[O-])s2)n[nH]1", "Potency": "inconclusive: 20 µM [inhibitor, single point]"},
      {"smiles": "CCOc1ccccc1NC(=O)c1cn(C2CCCC2)c(=O)c2c1c1ccccc1n2C", "Potency": "inconclusive: 7.08 µM [activator, partial curve, poor fit]"},
      {"smiles": "CC1CCCCN1S(=O)(=O)c1cccc2nonc12", "note": "(stereo not given)", "Potency": "inconclusive: 5.01 µM [inhibitor, full curve]"},
      {"smiles": "CN(C)S(=O)(=O)c1ccc(N2C(=O)CC2(/C=C/c2ccccc2)C(=O)NC2CCCC2)cc1", "note": "(stereo not given)", "Potency": "inconclusive: 3.98 µM [inhibitor, single point]"},
      {"smiles": "COC1(OC)C(/C=C/c2ccc(Cl)cc2)C(C#N)(C#N)C1(OC)OC", "note": "(stereo not given)", "Potency": "inconclusive: 10 µM [inhibitor, partial curve, poor fit]"},
      {"smiles": "O=C(COC(=O)c1cccnc1Cl)Nc1ccc2c(c1)OCO2", "Potency": "inactive"},
      {"smiles": "Cc1ccc(NC(=O)C(Cc2ccccc2)NS(=O)(=O)c2ccc3c(c2)oc(=O)n3C)c(Cl)c1", "note": "(stereo not given)", "Potency": "inactive"},
      {"smiles": "CC(=O)OC(C)(C)/C=C/C(=O)C(C)(O)C1C(O)CC2(C)C3CC=C4C(CC(O)C(=O)C4(C)C)C3(C)C(=O)CC12C", "note": "(stereo not given)", "Potency": "inconclusive: 0.178 µM [inhibitor, full curve]"},
      {"smiles": "S=C(NCc1ccc2[nH]c3c(c2c1)CCCC3)Nc1ccccc1", "Potency": "inactive"}
    ]}
  ]
}
